Test results as given in paper PMC10993396.
Results are given in words; binding and its absence hold for the method and conditions named. In cells and extracts the contact can be indirect. Where a sequence is shown, tags or fusion partners need not be part of it.

Sequences of proteins named here, by UniProt entry; tags and fusion partners are left off.
UniProt Q9FIJ0: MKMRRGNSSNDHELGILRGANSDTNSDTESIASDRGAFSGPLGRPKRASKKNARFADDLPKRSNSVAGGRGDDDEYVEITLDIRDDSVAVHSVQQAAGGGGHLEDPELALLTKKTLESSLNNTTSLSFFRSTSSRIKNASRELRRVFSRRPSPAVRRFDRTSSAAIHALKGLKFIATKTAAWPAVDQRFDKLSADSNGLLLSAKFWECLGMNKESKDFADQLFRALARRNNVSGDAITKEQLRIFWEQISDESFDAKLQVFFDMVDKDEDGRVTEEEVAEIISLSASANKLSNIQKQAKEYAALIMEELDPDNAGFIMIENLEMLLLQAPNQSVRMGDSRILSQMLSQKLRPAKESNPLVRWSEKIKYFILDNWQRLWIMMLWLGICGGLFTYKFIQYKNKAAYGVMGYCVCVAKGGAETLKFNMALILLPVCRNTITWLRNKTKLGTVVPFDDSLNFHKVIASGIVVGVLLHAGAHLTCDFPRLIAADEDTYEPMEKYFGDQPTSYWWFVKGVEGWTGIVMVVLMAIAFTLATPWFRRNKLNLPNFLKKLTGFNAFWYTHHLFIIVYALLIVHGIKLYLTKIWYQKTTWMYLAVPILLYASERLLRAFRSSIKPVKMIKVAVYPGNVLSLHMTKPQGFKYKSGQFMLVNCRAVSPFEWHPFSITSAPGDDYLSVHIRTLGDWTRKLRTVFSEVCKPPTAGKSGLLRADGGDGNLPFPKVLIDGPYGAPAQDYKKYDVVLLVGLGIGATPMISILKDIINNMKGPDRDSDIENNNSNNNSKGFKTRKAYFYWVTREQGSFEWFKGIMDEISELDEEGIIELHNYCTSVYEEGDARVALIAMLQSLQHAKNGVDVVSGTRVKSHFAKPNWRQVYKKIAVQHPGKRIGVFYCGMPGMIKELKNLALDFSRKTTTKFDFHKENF

T1: Arabidopsis thaliana Mitogen-activated protein Kinase Phosphatase 1 (MKP1), MYC-tagged (Arabidopsis thaliana) (UniProt Q9C5S1)
T1 sequence: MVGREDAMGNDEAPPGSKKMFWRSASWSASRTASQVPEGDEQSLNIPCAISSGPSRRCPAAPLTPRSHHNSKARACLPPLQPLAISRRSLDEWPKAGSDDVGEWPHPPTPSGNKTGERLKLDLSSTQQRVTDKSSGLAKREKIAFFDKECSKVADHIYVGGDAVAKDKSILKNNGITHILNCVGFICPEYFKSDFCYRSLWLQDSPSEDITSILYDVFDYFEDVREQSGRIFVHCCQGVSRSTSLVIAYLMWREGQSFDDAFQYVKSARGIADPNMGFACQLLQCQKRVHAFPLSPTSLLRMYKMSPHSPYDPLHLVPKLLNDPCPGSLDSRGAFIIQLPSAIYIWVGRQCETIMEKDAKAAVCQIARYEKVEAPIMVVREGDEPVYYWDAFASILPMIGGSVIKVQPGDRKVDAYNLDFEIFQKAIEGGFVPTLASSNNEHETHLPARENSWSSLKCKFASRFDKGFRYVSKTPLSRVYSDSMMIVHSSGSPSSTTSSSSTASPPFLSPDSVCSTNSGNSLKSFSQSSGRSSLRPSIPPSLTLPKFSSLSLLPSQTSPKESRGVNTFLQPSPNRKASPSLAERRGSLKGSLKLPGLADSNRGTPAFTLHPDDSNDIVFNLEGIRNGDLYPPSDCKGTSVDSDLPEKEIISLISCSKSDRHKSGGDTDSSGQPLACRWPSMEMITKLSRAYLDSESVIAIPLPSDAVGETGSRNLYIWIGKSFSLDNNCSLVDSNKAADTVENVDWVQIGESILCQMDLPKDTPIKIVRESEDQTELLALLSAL

T2: BOTRYTIS INDUCED KINASE 1 (BIK1), HA-tagged (Arabidopsis thaliana) (UniProt O48814)
T2 sequence: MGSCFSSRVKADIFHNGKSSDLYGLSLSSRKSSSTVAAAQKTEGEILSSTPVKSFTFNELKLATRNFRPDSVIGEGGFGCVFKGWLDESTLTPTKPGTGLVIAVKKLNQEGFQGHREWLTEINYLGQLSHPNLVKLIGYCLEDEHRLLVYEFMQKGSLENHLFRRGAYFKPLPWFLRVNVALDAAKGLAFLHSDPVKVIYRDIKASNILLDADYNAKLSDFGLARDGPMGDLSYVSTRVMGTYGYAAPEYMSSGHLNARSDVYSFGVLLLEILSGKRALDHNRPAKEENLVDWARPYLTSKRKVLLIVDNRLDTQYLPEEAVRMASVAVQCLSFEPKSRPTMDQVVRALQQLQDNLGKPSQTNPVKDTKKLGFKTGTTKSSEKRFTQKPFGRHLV


Assays:
Assay in all cases: co-IP; total protein extracts of 12-day-old Arabidopsis seedlings co-expressing both tagged proteins, treated 10 min with 500 nM flg22 or H2O; extraction buffer 50 mM Tris-HCl pH 7.5, 200 mM NaCl, 0.1% Tween-20; anti-MYC, anti-FLAG or anti-HA microbeads (µMACS) for 2 hours; detection by western …
[1] = target: T1, Arabidopsis thaliana Mitogen-activated protein Kinase Phosphatase 1 (MKP1), MYC-tagged (Arabidopsis thaliana)
[2] = target: T2, BOTRYTIS INDUCED KINASE 1 (BIK1), HA-tagged (Arabidopsis thaliana)
[3] = target: NADPH oxidase RBOHD (RESPIRATORY BURST OXIDASE HOMOLOG D), FLAG-tagged (Arabidopsis thaliana) (UniProt Q9FIJ0)

Molecule	binding [1]	binding [2]	binding [3]
NADPH oxidase RBOHD (RESPIRATORY BURST OXIDASE HOMOLOG D), FLAG-tagged (from UniProt Q9FIJ0 1-921) (enzyme)	no binding		
Arabidopsis thaliana Mitogen-activated protein Kinase Phosphatase 1 (MKP1), MYC-tagged (enzyme, UniProt Q9C5S1 1-784) MVGREDAMGNDEAPPGSKKMFWRSASWSASRTASQVPEGDEQSLNIPCAISSGPSRRCPAAPLTPRSHHNSKARACLPPLQPLAISRRSLDEWPKAGSDDVGEWPHPPTPSGNKTGERLKLDLSSTQQRVTDKSSGLAKREKIAFFDKECSKVADHIYVGGDAVAKDKSILKNNGITHILNCVGFICPEYFKSDFCYRSLWLQDSPSEDITSILYDVFDYFEDVREQSGRIFVHCCQGVSRSTSLVIAYLMWREGQSFDDAFQYVKSARGIADPNMGFACQLLQCQKRVHAFPLSPTSLLRMYKMSPHSPYDPLHLVPKLLNDPCPGSLDSRGAFIIQLPSAIYIWVGRQCETIMEKDAKAAVCQIARYEKVEAPIMVVREGDEPVYYWDAFASILPMIGGSVIKVQPGDRKVDAYNLDFEIFQKAIEGGFVPTLASSNNEHETHLPARENSWSSLKCKFASRFDKGFRYVSKTPLSRVYSDSMMIVHSSGSPSSTTSSSSTASPPFLSPDSVCSTNSGNSLKSFSQSSGRSSLRPSIPPSLTLPKFSSLSLLPSQTSPKESRGVNTFLQPSPNRKASPSLAERRGSLKGSLKLPGLADSNRGTPAFTLHPDDSNDIVFNLEGIRNGDLYPPSDCKGTSVDSDLPEKEIISLISCSKSDRHKSGGDTDSSGQPLACRWPSMEMITKLSRAYLDSESVIAIPLPSDAVGETGSRNLYIWIGKSFSLDNNCSLVDSNKAADTVENVDWVQIGESILCQMDLPKDTPIKIVRESEDQTELLALLSAL		no binding	no binding
